# Assay results taken from paper doi:10.1101/2025.09.23.678005.
# Sequences of proteins named here, by UniProt entry; tags and fusion partners are left off.
# UniProt Q7Z333: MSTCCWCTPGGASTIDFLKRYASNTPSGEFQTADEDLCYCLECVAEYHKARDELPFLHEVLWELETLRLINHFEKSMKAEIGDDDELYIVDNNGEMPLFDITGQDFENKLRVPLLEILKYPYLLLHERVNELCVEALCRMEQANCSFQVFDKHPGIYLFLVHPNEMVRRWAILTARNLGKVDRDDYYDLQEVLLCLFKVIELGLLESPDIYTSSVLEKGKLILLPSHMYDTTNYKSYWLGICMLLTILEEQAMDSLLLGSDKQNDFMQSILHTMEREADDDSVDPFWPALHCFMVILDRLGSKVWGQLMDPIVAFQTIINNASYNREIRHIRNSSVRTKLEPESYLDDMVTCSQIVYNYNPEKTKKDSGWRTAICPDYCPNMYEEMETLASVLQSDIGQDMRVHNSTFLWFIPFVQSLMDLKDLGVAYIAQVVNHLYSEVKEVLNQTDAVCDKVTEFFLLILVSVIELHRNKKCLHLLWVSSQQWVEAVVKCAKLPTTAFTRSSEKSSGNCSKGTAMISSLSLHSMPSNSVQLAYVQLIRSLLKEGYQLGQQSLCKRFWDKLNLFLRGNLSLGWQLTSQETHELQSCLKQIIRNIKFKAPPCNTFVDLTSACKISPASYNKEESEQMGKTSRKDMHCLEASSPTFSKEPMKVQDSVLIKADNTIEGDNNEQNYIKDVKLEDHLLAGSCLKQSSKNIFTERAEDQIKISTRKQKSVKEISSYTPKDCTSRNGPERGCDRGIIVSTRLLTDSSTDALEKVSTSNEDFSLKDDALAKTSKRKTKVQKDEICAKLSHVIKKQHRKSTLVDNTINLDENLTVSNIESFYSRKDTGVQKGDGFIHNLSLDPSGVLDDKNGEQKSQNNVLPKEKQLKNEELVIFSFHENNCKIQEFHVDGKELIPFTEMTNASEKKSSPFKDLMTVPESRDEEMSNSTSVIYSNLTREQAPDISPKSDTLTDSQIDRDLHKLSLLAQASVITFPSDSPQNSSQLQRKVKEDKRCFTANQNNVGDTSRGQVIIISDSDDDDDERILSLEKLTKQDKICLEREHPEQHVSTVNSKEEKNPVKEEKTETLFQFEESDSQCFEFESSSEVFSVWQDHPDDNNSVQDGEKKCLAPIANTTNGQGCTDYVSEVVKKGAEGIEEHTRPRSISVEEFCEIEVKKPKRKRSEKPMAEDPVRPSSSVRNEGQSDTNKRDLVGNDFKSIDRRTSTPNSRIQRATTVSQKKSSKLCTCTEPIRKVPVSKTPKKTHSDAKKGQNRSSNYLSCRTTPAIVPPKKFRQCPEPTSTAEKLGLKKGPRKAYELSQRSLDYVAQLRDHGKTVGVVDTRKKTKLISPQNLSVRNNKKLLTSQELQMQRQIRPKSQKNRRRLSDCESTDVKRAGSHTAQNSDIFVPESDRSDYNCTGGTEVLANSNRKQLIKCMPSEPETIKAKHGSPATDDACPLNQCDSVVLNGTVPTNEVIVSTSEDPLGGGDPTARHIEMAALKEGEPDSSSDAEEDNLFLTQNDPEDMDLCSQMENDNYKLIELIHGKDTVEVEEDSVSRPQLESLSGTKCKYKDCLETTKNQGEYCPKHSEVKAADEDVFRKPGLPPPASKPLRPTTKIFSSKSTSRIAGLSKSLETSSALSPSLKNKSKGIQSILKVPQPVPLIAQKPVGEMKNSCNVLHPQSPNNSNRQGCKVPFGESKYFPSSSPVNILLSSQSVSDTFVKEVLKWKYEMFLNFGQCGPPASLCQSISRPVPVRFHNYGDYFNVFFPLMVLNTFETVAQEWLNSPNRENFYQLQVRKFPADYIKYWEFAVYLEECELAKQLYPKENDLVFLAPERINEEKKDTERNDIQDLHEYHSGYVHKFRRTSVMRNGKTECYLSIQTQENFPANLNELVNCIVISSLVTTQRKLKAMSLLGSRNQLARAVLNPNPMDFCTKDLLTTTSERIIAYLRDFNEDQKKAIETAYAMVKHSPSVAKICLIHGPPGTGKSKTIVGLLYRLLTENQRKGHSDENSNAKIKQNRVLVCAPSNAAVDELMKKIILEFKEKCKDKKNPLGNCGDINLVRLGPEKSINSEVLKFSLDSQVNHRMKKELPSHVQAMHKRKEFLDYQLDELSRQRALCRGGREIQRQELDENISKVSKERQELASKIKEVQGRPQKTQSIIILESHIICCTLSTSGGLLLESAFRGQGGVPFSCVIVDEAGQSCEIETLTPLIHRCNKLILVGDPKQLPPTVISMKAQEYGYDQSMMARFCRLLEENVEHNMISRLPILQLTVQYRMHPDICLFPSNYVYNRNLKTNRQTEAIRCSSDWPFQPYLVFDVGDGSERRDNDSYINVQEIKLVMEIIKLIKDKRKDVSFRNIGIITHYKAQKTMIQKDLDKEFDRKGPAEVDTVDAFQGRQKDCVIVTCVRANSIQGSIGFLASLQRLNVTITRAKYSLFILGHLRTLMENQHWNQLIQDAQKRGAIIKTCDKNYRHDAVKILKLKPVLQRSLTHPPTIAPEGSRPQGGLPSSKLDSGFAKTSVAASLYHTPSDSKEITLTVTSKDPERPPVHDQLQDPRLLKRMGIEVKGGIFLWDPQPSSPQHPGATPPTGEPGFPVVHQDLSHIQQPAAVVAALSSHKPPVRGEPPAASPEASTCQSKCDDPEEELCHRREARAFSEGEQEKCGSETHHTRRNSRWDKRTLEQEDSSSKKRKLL
# UniProt Q12888: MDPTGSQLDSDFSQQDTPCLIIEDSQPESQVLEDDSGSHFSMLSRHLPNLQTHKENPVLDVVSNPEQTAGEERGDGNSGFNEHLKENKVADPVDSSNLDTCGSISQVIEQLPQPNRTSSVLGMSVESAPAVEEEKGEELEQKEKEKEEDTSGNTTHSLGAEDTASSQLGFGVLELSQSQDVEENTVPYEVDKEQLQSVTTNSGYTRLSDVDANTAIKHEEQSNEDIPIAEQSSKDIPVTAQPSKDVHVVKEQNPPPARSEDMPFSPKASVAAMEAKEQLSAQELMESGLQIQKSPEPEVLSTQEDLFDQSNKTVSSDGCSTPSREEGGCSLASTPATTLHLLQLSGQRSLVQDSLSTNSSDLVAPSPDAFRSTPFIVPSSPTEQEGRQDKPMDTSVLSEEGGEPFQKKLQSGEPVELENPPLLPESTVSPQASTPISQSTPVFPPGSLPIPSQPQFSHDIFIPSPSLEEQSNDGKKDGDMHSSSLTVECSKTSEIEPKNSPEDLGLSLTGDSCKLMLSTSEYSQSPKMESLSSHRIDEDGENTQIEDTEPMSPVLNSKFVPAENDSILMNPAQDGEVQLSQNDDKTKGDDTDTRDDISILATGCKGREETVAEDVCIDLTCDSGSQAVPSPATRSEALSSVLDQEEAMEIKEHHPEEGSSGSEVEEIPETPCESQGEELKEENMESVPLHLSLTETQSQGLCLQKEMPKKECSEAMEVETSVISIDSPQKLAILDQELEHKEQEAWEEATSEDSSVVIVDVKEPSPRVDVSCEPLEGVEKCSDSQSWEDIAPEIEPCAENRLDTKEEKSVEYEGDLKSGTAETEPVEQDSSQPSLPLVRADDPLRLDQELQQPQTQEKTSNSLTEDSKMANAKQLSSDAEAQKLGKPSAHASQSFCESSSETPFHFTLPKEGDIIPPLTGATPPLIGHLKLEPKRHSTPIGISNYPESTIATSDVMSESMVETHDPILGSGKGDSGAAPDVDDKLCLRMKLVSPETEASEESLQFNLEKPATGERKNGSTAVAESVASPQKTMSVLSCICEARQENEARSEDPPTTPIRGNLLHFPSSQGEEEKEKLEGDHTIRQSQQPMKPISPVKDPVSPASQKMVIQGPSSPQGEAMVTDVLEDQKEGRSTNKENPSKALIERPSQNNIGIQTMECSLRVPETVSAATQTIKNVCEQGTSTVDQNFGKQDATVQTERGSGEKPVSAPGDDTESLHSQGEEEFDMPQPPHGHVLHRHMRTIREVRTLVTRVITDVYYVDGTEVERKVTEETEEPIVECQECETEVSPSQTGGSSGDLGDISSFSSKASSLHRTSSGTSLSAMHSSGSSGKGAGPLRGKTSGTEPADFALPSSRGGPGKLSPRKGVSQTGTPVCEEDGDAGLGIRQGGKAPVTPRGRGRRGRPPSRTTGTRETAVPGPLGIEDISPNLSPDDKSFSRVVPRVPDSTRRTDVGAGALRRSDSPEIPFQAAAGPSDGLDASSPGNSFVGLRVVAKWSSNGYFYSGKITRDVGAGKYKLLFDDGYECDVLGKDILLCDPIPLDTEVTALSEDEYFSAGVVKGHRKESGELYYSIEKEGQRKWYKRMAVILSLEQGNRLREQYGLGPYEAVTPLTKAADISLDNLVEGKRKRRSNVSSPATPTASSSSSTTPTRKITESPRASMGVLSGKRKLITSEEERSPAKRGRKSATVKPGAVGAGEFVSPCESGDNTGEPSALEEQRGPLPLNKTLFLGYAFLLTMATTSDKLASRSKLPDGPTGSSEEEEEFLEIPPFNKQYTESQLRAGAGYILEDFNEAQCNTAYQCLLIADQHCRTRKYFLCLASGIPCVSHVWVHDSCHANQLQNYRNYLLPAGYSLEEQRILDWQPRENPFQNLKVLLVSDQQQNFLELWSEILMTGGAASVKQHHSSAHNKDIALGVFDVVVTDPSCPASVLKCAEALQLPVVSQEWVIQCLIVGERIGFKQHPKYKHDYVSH
# These are yes or no findings as the source states them, for the method shown. In cells and extracts the contact can be indirect. Some entries that bind do so weakly or less than the wild type.
# Target: Senataxin (human (endogenous in PBMCs)) (UniProt Q7Z333)
# Test: co-IP
substance,measurement,value
Tumor Suppressor p53-Binding Protein 1 (from UniProt Q12888 1-1972),binding,binds
